Laboratory results from article PMC5225067.
Results are given in words; binding and its absence hold for the method and conditions named. Some results given as binding are weak or reduced against the parent protein; the word gives no strength.

Chains of the proteins cited; added tags and fusions are not shown.
UniProt P51534: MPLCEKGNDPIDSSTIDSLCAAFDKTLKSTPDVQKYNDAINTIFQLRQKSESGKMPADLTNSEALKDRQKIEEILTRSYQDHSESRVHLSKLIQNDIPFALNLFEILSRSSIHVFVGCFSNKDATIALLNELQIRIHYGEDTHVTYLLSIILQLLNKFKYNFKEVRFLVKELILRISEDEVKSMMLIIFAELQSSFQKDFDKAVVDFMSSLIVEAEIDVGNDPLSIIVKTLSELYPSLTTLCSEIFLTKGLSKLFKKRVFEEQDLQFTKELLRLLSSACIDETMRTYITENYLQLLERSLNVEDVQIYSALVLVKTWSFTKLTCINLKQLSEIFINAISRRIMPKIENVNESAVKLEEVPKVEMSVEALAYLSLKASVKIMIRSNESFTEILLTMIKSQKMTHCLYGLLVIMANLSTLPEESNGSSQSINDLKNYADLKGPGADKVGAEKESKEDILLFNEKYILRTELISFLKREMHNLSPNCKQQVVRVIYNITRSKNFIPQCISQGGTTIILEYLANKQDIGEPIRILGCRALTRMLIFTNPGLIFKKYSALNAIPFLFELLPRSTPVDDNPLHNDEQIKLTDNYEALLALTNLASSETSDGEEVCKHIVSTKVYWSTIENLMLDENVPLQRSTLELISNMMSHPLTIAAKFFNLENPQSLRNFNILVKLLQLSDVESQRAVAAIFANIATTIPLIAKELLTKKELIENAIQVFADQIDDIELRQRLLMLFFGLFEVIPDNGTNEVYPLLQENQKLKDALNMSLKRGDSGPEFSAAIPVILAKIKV

Target: Hsp82-Gal4 DNA-binding domain (BD) fusion (S. cerevisiae) (UniProt P02829)
Assay: two-hybrid; Gal4 system in mated PJ69-4 cells; quantitative GAL4 promoter-directed β-galactosidase expression; measured at 25 °C and 39 °C (heat stress); control: pBDC fusion with empty pADC

binding: binds
Substance: Gal4 activator domain (AD)-She4 fusion, wild type (from UniProt P51534 1-789)
